Among the data in PMC11784460 are binding values, retold here.

By UniProt entry, the sequences of proteins in these tests, tags left out.
UniProt A5A8Y3: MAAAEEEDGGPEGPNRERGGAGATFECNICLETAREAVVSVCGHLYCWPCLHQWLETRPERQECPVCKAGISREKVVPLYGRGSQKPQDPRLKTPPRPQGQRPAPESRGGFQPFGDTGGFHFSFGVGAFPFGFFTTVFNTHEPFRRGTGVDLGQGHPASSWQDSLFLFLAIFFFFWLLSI
UniProt Q99942: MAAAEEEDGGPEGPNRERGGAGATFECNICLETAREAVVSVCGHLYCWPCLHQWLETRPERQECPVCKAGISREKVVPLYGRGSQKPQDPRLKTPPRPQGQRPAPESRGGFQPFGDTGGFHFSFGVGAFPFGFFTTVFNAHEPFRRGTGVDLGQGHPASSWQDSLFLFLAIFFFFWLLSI

Assay [1] deals with sRNF5-YN (Sus scrofa) (UniProt A5A8Y3). In words: split reporter; BiFC with YN (aa 1-155 of YFP) and YC (aa 156-239 of YFP) fusions in living PK15 cells, 24 h after transfection, confocal microscopy.
In assay [2] the target is Flag-sRNF5 (Sus scrofa RING finger protein 5) (Sus scrofa) (UniProt A5A8Y3). The assay can be described thus: co-IP; PK15 cells cotransfected 24 h; lysate (20 mM Tris pH 7.4, 150 mM NaCl, 1% Triton X-100, 1% sodium deoxycholate) immunoprecipitated with Flag M2 on Protein A+G magnetic beads, 4°C, 12 h; blot anti-Flag and anti-GFP.
Assay [3] concerns the target endogenous sRNF5 (Sus scrofa (endogenous in PK15)) (UniProt A5A8Y3). The assay can be described thus: co-IP; endogenous proteins in PK15 lysate; mouse monoclonal RNF5 antibody on Protein A+G magnetic beads as bait antibody, normal mouse IgG as negative control.
The target of assay [4] is Flag-hRNF5 (Homo sapiens RING finger protein 5) (Homo sapiens) (UniProt Q99942). In words: co-IP.

Results are given in words; binding and its absence hold for the method and conditions named. In cells and extracts the contact can be indirect. Some binding calls cover weakened binding; strength is not graded here. For some of these results: Tags and fused reporters may be left off the sequences shown.

In the case of “sABHD16A-YC (from UniProt A0A287AWB5 1-558)”, the binding result in assay [1] is “binds”.

With “sABHD16A-EGFP (Sus scrofa alpha/beta-hydrolase domain-containing 16A) (from UniProt A0A287AWB5 1-558)”, the binding entry in assay [2] was “binds”.

In the case of “endogenous sABHD16A (from UniProt A0A287AWB5 1-558)”, in assay [3], the binding entry is recorded as “binds”.

B1: hABHD16A-EGFP (Homo sapiens alpha/beta-hydrolase domain-containing 16A) (protein, UniProt O95870 1-558)
chain: MAKLLSCVLGPRLYKIYRERDSERAPASVPETPTAVTAPHSSSWDTYYQPRALEKHADSILALASVFWSISYYSSPFAFFYLYRKGYLSLSKVVPFSHYAGTLLLLLAGVACLRGIGRWTNPQYRQFITILEATHRNQSSENKRQLANYNFDFRSWPVDFHWEEPSSRKESRGGPSRRGVALLRPEPLHRGTADTLLNRVKKLPCQITSYLVAHTLGRRMLYPGSVYLLQKALMPVLLQGQARLVEECNGRRAKLLACDGNEIDTMFVDRRGTAEPQGQKLVICCEGNAGFYEVGCVSTPLEAGYSVLGWNHPGFAGSTGVPFPQNEANAMDVVVQFAIHRLGFQPQDIIIYAWSIGGFTATWAAMSYPDVSAMILDASFDDLVPLALKVMPDSWRGLVTRTVRQHLNLNNAEQLCRYQGPVLLIRRTKDEIITTTVPEDIMSNRGNDLLLKLLQHRYPRVMAEEGLRVVRQWLEASSQLEEASIYSRWEVEEDWCLSVLRSYQAEHGPDFPWSVGEDMSADGRRQLALFLARKHLHNFEATHCTPLPAQNFQMPWHL
Consider B1, for which the binding result in assay [4] is “binds”.
